# Primary screen of a compound library

The chains behind the UniProt entries cited, without tags or fusion partners. Residues count along the entry.
UniProt P9WNZ1, whole entry: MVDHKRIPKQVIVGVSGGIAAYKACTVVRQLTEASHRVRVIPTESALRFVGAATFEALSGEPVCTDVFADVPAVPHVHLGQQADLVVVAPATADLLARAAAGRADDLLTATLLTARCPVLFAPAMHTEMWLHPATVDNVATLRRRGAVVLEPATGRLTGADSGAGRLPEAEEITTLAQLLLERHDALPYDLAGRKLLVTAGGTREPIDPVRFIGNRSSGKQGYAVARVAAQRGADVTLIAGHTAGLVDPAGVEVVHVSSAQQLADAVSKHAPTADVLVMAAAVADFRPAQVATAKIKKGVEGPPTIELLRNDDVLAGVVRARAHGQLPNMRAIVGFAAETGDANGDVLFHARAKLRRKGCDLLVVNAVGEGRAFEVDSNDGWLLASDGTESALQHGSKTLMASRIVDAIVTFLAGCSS
UniProt Q8IDJ8, 1-583: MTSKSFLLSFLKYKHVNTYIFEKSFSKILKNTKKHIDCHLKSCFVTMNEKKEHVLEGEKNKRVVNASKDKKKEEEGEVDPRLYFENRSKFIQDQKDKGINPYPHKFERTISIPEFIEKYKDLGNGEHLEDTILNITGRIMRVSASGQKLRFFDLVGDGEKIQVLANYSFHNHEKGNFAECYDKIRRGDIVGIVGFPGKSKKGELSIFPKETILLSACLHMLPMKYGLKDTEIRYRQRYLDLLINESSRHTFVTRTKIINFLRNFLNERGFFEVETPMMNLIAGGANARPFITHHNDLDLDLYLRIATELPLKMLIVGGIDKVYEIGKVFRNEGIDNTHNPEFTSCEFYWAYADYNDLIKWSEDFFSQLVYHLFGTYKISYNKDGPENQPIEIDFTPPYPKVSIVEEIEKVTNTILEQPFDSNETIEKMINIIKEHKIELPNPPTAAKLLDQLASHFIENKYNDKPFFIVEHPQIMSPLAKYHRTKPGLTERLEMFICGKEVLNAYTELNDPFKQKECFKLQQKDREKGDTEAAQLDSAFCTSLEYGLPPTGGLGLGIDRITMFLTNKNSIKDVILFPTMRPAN
UniProt P9WFT3, whole entry: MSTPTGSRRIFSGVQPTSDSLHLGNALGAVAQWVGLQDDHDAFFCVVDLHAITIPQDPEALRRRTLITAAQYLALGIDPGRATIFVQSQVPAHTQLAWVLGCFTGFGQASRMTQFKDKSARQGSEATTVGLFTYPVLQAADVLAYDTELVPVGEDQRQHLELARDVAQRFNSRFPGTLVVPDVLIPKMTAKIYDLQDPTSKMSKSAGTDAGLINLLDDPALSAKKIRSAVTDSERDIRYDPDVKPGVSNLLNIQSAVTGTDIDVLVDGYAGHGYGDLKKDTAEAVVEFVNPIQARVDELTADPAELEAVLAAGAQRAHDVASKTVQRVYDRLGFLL
UniProt I6X8D2, whole entry: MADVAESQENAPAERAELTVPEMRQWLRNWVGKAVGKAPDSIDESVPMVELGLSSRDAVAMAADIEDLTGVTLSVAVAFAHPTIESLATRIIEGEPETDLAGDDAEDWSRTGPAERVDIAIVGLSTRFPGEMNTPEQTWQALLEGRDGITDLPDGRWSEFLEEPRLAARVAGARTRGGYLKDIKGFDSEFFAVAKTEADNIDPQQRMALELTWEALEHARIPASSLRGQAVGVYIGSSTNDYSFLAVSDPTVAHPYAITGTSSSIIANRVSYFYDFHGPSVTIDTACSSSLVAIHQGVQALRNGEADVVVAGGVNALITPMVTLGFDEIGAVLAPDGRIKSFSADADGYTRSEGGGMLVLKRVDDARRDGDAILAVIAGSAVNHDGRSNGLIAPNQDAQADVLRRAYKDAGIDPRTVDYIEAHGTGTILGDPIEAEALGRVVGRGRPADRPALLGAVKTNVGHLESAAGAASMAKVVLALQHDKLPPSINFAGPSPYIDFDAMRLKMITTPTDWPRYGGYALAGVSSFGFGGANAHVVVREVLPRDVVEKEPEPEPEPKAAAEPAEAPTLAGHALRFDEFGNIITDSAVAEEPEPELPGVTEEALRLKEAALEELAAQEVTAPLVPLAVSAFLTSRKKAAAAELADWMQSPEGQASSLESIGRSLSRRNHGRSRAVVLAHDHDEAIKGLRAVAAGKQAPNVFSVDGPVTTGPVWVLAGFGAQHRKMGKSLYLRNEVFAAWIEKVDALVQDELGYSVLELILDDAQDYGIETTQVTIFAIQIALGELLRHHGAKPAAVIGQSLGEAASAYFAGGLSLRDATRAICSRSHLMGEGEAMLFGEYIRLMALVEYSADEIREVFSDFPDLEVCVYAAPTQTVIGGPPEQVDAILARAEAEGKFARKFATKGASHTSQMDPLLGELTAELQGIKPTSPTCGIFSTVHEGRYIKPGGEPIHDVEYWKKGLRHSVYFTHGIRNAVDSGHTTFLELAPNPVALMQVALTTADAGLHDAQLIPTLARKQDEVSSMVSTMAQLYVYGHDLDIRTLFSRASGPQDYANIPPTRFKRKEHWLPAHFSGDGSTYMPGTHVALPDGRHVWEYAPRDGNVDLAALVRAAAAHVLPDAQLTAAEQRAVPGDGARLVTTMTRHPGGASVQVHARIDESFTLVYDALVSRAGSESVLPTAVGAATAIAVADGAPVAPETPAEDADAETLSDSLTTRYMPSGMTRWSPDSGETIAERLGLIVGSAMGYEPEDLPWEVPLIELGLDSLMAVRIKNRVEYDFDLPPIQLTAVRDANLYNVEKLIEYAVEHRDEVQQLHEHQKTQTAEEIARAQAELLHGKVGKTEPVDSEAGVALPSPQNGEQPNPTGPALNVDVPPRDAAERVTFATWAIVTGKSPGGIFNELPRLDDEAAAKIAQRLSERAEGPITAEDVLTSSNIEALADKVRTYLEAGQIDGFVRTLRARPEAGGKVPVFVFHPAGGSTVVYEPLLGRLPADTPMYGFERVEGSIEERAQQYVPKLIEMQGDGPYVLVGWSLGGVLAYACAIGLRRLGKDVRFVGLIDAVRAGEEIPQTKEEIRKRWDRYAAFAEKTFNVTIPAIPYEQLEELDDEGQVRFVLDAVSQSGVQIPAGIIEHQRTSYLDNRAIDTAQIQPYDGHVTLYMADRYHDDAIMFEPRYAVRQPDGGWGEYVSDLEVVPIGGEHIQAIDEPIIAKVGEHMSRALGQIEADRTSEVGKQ

Each number is a percent effect as filed.
How 0% and 100% were set is not recorded. Most values in the screen are low, and negative values occur.
This is an unselected part of the compounds tested.
Two or more numbers in one place are separate tests of the same structure; such repeats can differ widely.
A dash means the value is not listed here; it may have been measured.

CoaBC: 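Coenzyme A biosynthesis protein CoaBC, Mycobacterium tuberculosis (UniProt P9WNZ1). Enzyme assay of CoaBC with a phosphate dye (Biomol Green) read at 650 nm. Compounds at 30 µM. Higher reads as stronger inhibition, judged from the few compounds that gave an IC50. Most strong results did not repeat in a second test. Of about 67,000 compounds tested this way, about 40 (0.06%) reached 50% or more in at least one test.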
PfKRS1: 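Lysine-tRNA ligase, Plasmodium falciparum 3D7 (UniProt Q8IDJ8). Enzyme assay of the cytosolic lysyl-tRNA synthetase in 384-well plates, read by luminescence. Compounds at 30 µM. Direction is inferred from only a few compounds that gave an IC50; most scored high, so higher reads as stronger inhibition. Of about 69,000 compounds tested this way, about 49 (0.071%) reached 50% or more in at least one test.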
Toxoplasma: 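Assay of Toxoplasma gondii numbers, read through their beta-galactosidase reporter with a colour substrate. Compounds at 10 µM. The record gives no direction; the compounds picked for IC50 retests had high values, so higher reads as fewer parasites. About 67,000 compounds were tested under these conditions; 0.38% (about 260) showed 50% or more at least once.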
MtTrpRS: 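Tryptophan-tRNA ligase, Mycobacterium tuberculosis (UniProt P9WFT3). Enzyme assay of tryptophanyl-tRNA synthetase; the read-out is not stated. Compounds at 10 µM. Direction is not recorded; retested compounds ran higher, which suggests that high means inhibition. Size under these conditions: about 65,000 compounds, about 64 of them at 50% or above in at least one test.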
Pks13 thioesterase: 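Enzyme assay of the thioesterase domain of polyketide synthase 13; the read-out is not stated. Target: Polyketide synthase Pks13, Mycobacterium tuberculosis (UniProt I6X8D2). Concentration: 30 µM. The record gives no direction; the compounds picked for IC50 retests had high values, so higher reads as stronger inhibition. About 67,000 compounds were tested under these conditions; 0.46% (about 300) showed 50% or more at least once.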

Cc1ccc(CN2C[C@H](C(=O)N3CCCCO3)[C@@H]3CCO[C@@H]3C2)o1 read CoaBC: 1.29%; PfKRS1: -0.3528%; MtTrpRS: -0.6506%; Pks13 thioesterase: -22.41%. O=C(NCCCOCC1CC1)Nc1cccnc1N1CCOCC1 read CoaBC: -3.106%; PfKRS1: 7.623%; Toxoplasma: -8.748%; MtTrpRS: 0.9381%; Pks13 thioesterase: 2.177%. Result for CC(C)OCc1ncn2c1CN(Cc1cnn(C)c1)CCC2.O=C(O)C(F)(F)F was Toxoplasma: 4.803%. With COCc1nc(C(=O)N2CCCC2c2ccccc2C)cs1 (stereo unspecified) the screen gave CoaBC: 5.483%; PfKRS1: 0.2903%; Toxoplasma: -4.218%; MtTrpRS: -1.072%; Pks13 thioesterase: -8.348%.

For Cc1cc(C)n(C2CCCN(C(=O)CCCNc3ncccn3)C2)n1 (stereo unspecified) the result was CoaBC: 4.961%; PfKRS1: 3.024%; Toxoplasma: 2.531%; MtTrpRS: -0.4873%; Pks13 thioesterase: -14.59%. With Cc1cnc(C(=O)N2CCCn3c(nc(CN(C)C)cc3=O)C2)cn1 the screen gave CoaBC: 4.235%; PfKRS1: -1.348%; MtTrpRS: 4.231%; Pks13 thioesterase: 8.603%. CC(=O)Nc1nc(C2CCN(CC(N)=O)CC2)cs1 read CoaBC: 2.778%; PfKRS1: 1.837%; Toxoplasma: -1.858%; MtTrpRS: -1.087%; Pks13 thioesterase: -47.69%. Cn1cc(-c2cnc3n2CCC32CCN(S(C)(=O)=O)CC2)cn1 gave CoaBC: -0.9662%; PfKRS1: 4.888%; Toxoplasma: -1.291%; MtTrpRS: -3.273%; Pks13 thioesterase: -3.067%.

CC(C)(C)C(=O)N1C[C@@H](F)[C@@H](OCc2nc3ncccc3[nH]2)C1 read CoaBC: 9.934%; PfKRS1: 2.976%; Toxoplasma: 6.68%; MtTrpRS: -0.07588%; Pks13 thioesterase: -31.56%. COc1ccc(-c2nnc(CNCCn3cccn3)o2)cc1 read CoaBC: 3.937%; PfKRS1: -0.7366%; Toxoplasma: 3.749%; MtTrpRS: -4.47%; Pks13 thioesterase: -1.187%. CN(Cc1cscn1)C1CCCN(c2cccnn2)C1 (stereo unspecified) read CoaBC: 4.774%; PfKRS1: -1.826%; Toxoplasma: 1.19%; MtTrpRS: 11.68%; Pks13 thioesterase: -11.46%. For CN(C(=O)COc1ccc(-c2noc(C3CCCO3)n2)cc1)C1CC1 (stereo unspecified) the result was CoaBC: -6.308%; PfKRS1: 2.285%; Toxoplasma: 18.88%; MtTrpRS: -0.5913%; Pks13 thioesterase: -3.63%.

O=C(O)C(F)(F)F.O=C(O)C(F)(F)F.[H][C@@]12CN(CCOC)CCO[C@]1([H])CN(Cc1cc(OC)cc(OC)c1)C2 gave Toxoplasma: -3.182%. Result for COc1cc(NC(=O)NC2CCCC2)ccc1N1CCOC1=O was CoaBC: 8.678%; PfKRS1: 1.437%; Toxoplasma: 5.385%; MtTrpRS: -5.319%; Pks13 thioesterase: -37.31%. For COCC(=O)NCC[C@H]1CC(C)(C)Oc2ccc(OC)cc21 the result was CoaBC: 1.084%; PfKRS1: 3.087%; Toxoplasma: -10.95%; Pks13 thioesterase: 10.85%. For Cc1ccc(CN(CCCN(C)C)Cc2cnc(N(C)C)nc2)o1.O=C(O)CC(O)(CC(=O)O)C(=O)O the result was Toxoplasma: 16.35%.

Cc1ccc(-c2nc(C3CCN(C(=O)c4cnn(C)c4)CC3)no2)cn1 read CoaBC: 3.196%; PfKRS1: -2.047%; Toxoplasma: -4.316%; MtTrpRS: 16.84%; Pks13 thioesterase: -8.263%. For Fc1ccccc1CNc1ccnc(C2CCNCC2)c1 the result was CoaBC: -0.7126%; PfKRS1: 0.9153%; MtTrpRS: 9.986%. For CCc1noc(CN2CCC(NC(=O)c3ccc(C)s3)CC2)n1 the result was CoaBC: 3.553%; PfKRS1: 4.476%; Toxoplasma: 6.64%; MtTrpRS: 1.485%; Pks13 thioesterase: -22.42%. Cc1nccc(N2C[C@@H](CN3CCCC3)[C@@H](CO)C2)n1 read CoaBC: -1.728%; PfKRS1: 4.354%; Toxoplasma: -2.513%; MtTrpRS: -5.168%; Pks13 thioesterase: -27.36%.

Cc1nnc(CN(C)Cc2nc3c(s2)CCCC3)o1 gave CoaBC: 3.259%; PfKRS1: 5.346%; Toxoplasma: -4.289%; MtTrpRS: 1.09%; Pks13 thioesterase: -12.05%. CC(C)N(CCS(C)(=O)=O)Cc1csc(-c2ccccc2F)n1 gave CoaBC: -0.2481%; PfKRS1: -1.458%; Toxoplasma: 0.1335%; MtTrpRS: -0.1903%; Pks13 thioesterase: 3.548%. Result for COc1cccc(CNC(=O)c2cc(C)nc(N3CCCCC3)n2)c1 was CoaBC: 15.87% and 31.56%; PfKRS1: 6.288%; Toxoplasma: 15.96%; MtTrpRS: 2.513%; Pks13 thioesterase: 16.48%. Cc1cc2c(=O)n3c(nc2s1)CCN(C(=O)c1cnn(C)c1C)CC3 gave CoaBC: 0.2778%; PfKRS1: 3.835%; Toxoplasma: 8.905%; MtTrpRS: 2.425%; Pks13 thioesterase: -28.32%.

Result for Cc1cccc(CNC(=O)CC2CCN(C(=O)C(C)C)CC2)n1 was CoaBC: -6.553%; PfKRS1: -2.067%; Toxoplasma: -2.013%; MtTrpRS: 9.091%; Pks13 thioesterase: -24.85%. Result for CN1CCc2[nH]nc(C(=O)N3CCC4(CCCO4)CC3)c2C1 was CoaBC: 5.03%; PfKRS1: 0.463%; Toxoplasma: 1.903%; MtTrpRS: -1.397%; Pks13 thioesterase: -14.4%. Cc1nc(CN2C(=O)CCC23CCN(Cc2ccco2)CC3)cs1 gave CoaBC: 2.97%; PfKRS1: 5.487%; Toxoplasma: 1.667%; Pks13 thioesterase: -18.7%. With Cc1[nH]ncc1C(=O)N1CCCC(c2cc(C(F)(F)F)[nH]n2)C1 (stereo unspecified) the screen gave CoaBC: 4.722%; PfKRS1: -1.794%; Toxoplasma: 5.385%; MtTrpRS: -4.762%; Pks13 thioesterase: -11.39%.

2 of the entries, repeated:

| compound | CoaBC | PfKRS1 | Toxoplasma | MtTrpRS | Pks13 thioesterase |
|---|---|---|---|---|---|
| `CC(C)N(CCS(C)(=O)=O)Cc1csc(-c2ccccc2F)n1` | -0.2481 | -1.458 | 0.1335 | -0.1903 | 3.548 |
| `CC(C)OCc1ncn2c1CN(Cc1cnn(C)c1)CCC2.O=C(O)C(F)(F)F` | - | - | 4.803 | - | - |

From ChEMBL document CHEMBL3988442, “University of Dundee, Small-Polar-MMV Screening Library” (2021).